Structures can show the parent of a compound that is named as a salt. ± gives the standard deviation of the averaged measurements. The full ranking holds about 1,800 compounds; the median of “GFP- (p16Ink4a-) cell count relative to negative-control wells” is about 0.99, and the lowest 2% start at about 0.5. The list shows a part of the results.
Tested on: mouse p16Ink4a+/- lung fibroblasts (INKBRITE, bleomycin-injured)
Experiment: GFP- (p16Ink4a-) cell count relative to negative-control wells (fold of vehicle); higher = more p16Ink4a- cells surviving
Conditions: 1 µM; 3 days

Compound	GFP-
O=C(NC1CCNCC1)c1n[nH]cc1NC(=O)c1c(Cl)cccc1Cl	1.15
Cc1ccc(S(=O)(=O)Nc2nc3ccccc3nc2Nc2ccc3nsnc3c2)cc1	1.02
O=C(O)c1ccc(-n2nc(-c3ccccc3O)nc2-c2ccccc2O)cc1 [Deferasirox]	0.656
COc1cc(OC2CCN(C)CC2)ccc1Nc1ncc2c(n1)n(C1CCCC1)c(=O)n2C	0.875
CCCc1cc(O)nc(S)n1 [Propylthiouracil]	1.03
CC(=O)O/N=C1/C(=O)N(Cc2cc(Cl)ccc2Cl)c2ccc(Cl)cc21	0.961
C[C@]12CC[C@@H]3c4ccc(O)cc4C[C@@H](CCCCCCCCCS(=O)CCCC(F)(F)C(F)(F)F)[C@H]3[C@@H]1CC[C@@H]2O (some centres undefined) [Fulvestrant]	1.15
O=c1[nH]c(=O)n([C@H]2C[C@H](O)[C@@H](CO)O2)cc1C(F)(F)F [Trifluridine]	0.95
COc1cc(OC)c(/C=C/S(=O)(=O)Cc2ccc(OC)c(NCC(=O)O)c2)c(OC)c1 [Rigosertib]	0.916
O=C(/C=C/c1ccc(O)cc1)c1ccc(O)cc1O [Isoliquiritigenin]	0.95
COC1CCN(C(=O)c2cc(Cc3nnc(O)c4ccccc34)ccc2F)CC1	0.855 ± 0.061
Cc1[nH]c(/C=C2\C(=O)Nc3ccccc32)c(C)c1CCC(=O)O [Orantinib]	1.09
Cc1oncc1C(=O)Nc1ccc(C(F)(F)F)cc1 [Lefunamide, Leflunomide]	1.11
C[C@@H]1C[C@H]2[C@@H]3CCC4=CC(=O)C=C[C@]4(C)[C@@]3(F)[C@@H](O)C[C@]2(C)[C@@]1(O)C(=O)CO [Dexamethasone]	1.1
CCC(=O)Nc1cccc(Oc2nc(Nc3ccc(N4CCN(C)CC4)cc3OC)ncc2Cl)c1	1.15
C/C(=N\NC(=S)N1CCC1)c1ccccn1	0.4
CCCCCCNC(=O)n1cc(F)c(=O)[nH]c1=O [Carmofur]	0.702
C[C@H](NCc1ccc(OCc2cccc(F)c2)cc1)C(N)=O [Safinamide]	1.06
C[C@@]1(c2cc(-c3cncnc3)c(F)cc2F)CCSC(N)=N1	1.06
Nc1nc(N)c2nc(-c3ccccc3)c(N)nc2n1 [Triamterene]	1.06

Compound	GFP-
O=C1NCCc2[nH]c(-c3ccncc3)cc21	0.999
Cn1c(=O)c(F)c(Nc2ccc(I)cc2F)c2c(=O)n(C[C@@H](O)CO)cnc21	0.862
Cc1cccc(N(C)C(=S)Oc2ccc3ccccc3c2)c1 [Tolnaftate]	0.981
C[C@H]1C[C@H]2[C@@H]3CCC4=CC(=O)C=C[C@]4(C)[C@@]3(F)[C@@H](O)C[C@]2(C)[C@@]1(O)C(=O)CO [Betamethasone]	1.06
C[C@@H](O[C@H]1OCCN(Cc2n[nH]c(O)n2)[C@H]1c1ccc(F)cc1)c1cc(C(F)(F)F)cc(C(F)(F)F)c1 [Aprepitant]	1.06
Oc1ccc(OCc2ccccc2)cc1 [Monobenzone]	0.704
Nc1ccc(O)c(C(=O)O)c1 [Mesalazine]	0.815
O=c1ncccn1[C@@H]1O[C@H](CO)[C@H](O)C1O (some centres undefined) [Zebularine]	1.01 ± 0.07
COc1cc(-c2cc3ccccc3[nH]2)[nH]c1/C=C1\N=C(C)C=C1C [Obatoclax Mesylate]	0.249
CC(C)(Oc1ccc(CCNC(=O)c2ccc(Cl)cc2)cc1)C(=O)O [Bezafibrate]	1.2
C[C@@H](O[C@H]1OCCN(Cc2nc(O)n(P(=O)(O)O)n2)[C@H]1c1ccc(F)cc1)c1cc(C(F)(F)F)cc(C(F)(F)F)c1 [Fosaprepitant]	0.943
Cc1cc2c(F)c(Oc3ncnn4cc(OC[C@@H](C)OC(=O)[C@H](C)N)c(C)c34)ccc2[nH]1 [Brivanib Alaninate]	0.978
C=C1/C(=C/C=C2/CCC[C@]3(C)[C@@H]([C@H](C)CCCC(C)C)CC[C@@H]23)C[C@@H](O)C[C@@H]1O [Alfacalcidol]	1.3
C[C@]12CC[C@@H]3c4ccc(O)cc4CC[C@H]3[C@@H]1C[C@@H](O)[C@@H]2O [Estriol]	0.927
C[C@H]1[C@H](C)C[C@@H](C(=O)O)C2CC[C@]3(C)C(=CC[C@@H]4[C@@]5(C)CC[C@H](O)C(C)(C)[C@@H]5CC[C@]43C)[C@@H]21 (some centres undefined) [Ursolic Acid]	1.05
CN(C)CCOc1ccc(-c2nc(-c3ccc4c(c3)CC/C4=N\O)c(-c3ccncc3)[nH]2)cc1	1.23
CN(C)[C@@H](CCOc1cccc2ccccc12)c1ccccc1 [Dapoxetine]	1.12
CCCSc1ccc2[nH]c(NC(=O)OC)nc2c1 [Albendazole]	0.802
NS(=O)(=O)c1cc(Cl)c(Cl)c(S(N)(=O)=O)c1 [Diclofenamide]	0.918

Quoted at random: two compounds from above, in no set order.
Compound	GFP-
CC(=O)O/N=C1/C(=O)N(Cc2cc(Cl)ccc2Cl)c2ccc(Cl)cc21	0.961
C[C@@H](O[C@H]1OCCN(Cc2nc(O)n(P(=O)(O)O)n2)[C@H]1c1ccc(F)cc1)c1cc(C(F)(F)F)cc(C(F)(F)F)c1 [Fosaprepitant]	0.943
